# Results from PubChem BioAssay AID493014 (National Center for Advancing Translational Sciences (NCATS), 2011).
# Several values for one entry are separate records, joined by “and”; a condition that tells them apart may be missing. Identical values can stand only once. About 170 (0.05%) of roughly 340,000 compounds were called active. Inconclusive means that the source gave no clear call. Such entries were picked first, then a sample of the others. Calls come from the whole dose curve; as a rule, active = well fitted inhibition curve with a large enough effect in the signal ratio, with a control signal flat (not every such curve was filed as active); inconclusive = small, poorly fitted or top-dose-only effect, or effect the other way, or a change in a side signal; inactive = flat fitted curve, though single readings scatter; the % refers to the signal ratio. A potency beside an inconclusive call is a rough fit, not a confirmed value.
# Test: qHTS Assay to Find Inhibitors of Chronic Active B-Cell Receptor Signaling;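 for activity change, negative = inhibition: plate controls were basal doxycycline-induced cells for no effect and cells given 10 µM MG132 for full effect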
# Details: ABC-DLBCL IkBa-CBG/CBR reporter, luminescence ratio (green luciferase fused to IkBa over red control in TMD8 lymphoma cells), 4 h; activity change, negative = inhibition: at 46.1 µM (top of the series) unless noted
# In short: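 TMD8 ABC-DLBCL cells carrying doxycycline-inducible green luciferase fused to IkappaBalpha plus unfused red luciferase were exposed to compounds (up to 46 uM) for 4 hrs at 37C. Activity came from the overlap-corrected green/red luminescence ratio.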
# Potency is the fitted concentration of half-maximal effect.
SMILES,"activity change, negative = inhibition",Potency
Cc1c(NC(=O)c2cc3c(s2)-c2ccccc2OC3)cccc1[N+](=O)[O-],inconclusive: 5.15%,–
Cc1cccc(-n2nnc(C(=O)Nc3ccc(F)cc3)c2N)c1,inconclusive: 390%,–
O=C(NC1CCCCCCC1)c1ccco1,inconclusive: 0.161%,–
CC1C/C(=C\c2ccccc2[N+](=O)[O-])c2nc3ccccc3c(C(=O)O)c2C1 (centres undefined),inconclusive: 4.26%,–
C/C(CC(=O)Nc1ccc(Cl)cc1Cl)=N\NC(=O)C(=O)N1CCCC1,–,"inconclusive: 12.6 µM [falling, partial curve, poor fit]"
Cc1cccc(C)c1NC(=O)c1c[nH]c2ccccc12,inconclusive: 9.03%,–
Cc1ccc(N(CC(=O)Nc2cc(C)cc(C)c2)S(=O)(=O)c2c(C)noc2C)cc1,inconclusive: 10.4%,–
O=C(NCCOc1ccccc1)C1CCC(=O)N(CCCN2CCCC2=O)C1 (centres undefined),inactive: 7.81%,–
O=C(N/N=C/c1cc(Cl)cc([N+](=O)[O-])c1O)c1ccccc1NS(=O)(=O)c1cccs1,inactive: -0.855%,–
NC(=O)c1ccccc1NC(=O)/C=C/c1ccccc1,–,"inconclusive: 25.9 µM [rising, single point]"
c1ccc(-c2nnc(CN3CCN(C(c4ccccc4)c4ccccc4)CC3)o2)cc1,inconclusive: -16%,–
CC(C)NC(=O)C(OC(=O)c1ccccc1)C(OC(=O)c1ccccc1)C(=O)O (centres undefined),inconclusive: -5.45%,–
O=c1oc(-c2cccs2)nc2sc3c(c12)CCCCC3,–,"inconclusive: 0.398 µM [falling, full curve, poor fit]"
COc1cc(OC)cc(-c2nc3ccccc3c(=O)n2NC(=O)c2cccnc2Cl)c1,inconclusive: -1.12%,–
CCCn1nc(NC(=O)c2cccs2)c2cc3ccccc3nc21,inconclusive: 8.75%,–
CNc1c(N)n(Cc2ccccc2)c(=O)[nH]c1=O,–,"inconclusive: 6.51 µM [falling, single point]"
CC1(C)CC(=O)C2=C(C1)NC1=C(C(=O)c3ccccc31)C2c1ccc(O)cc1 (centres undefined),inactive: -0.88%,–
Nc1ccc(-c2nc3nc(N)nc(N)c3nc2-c2ccc(N)cc2)cc1,inconclusive: -18.8%,–
COc1cc(C(=O)Nc2ccc(C(=O)O)cc2)ccc1OC(C)=O,inconclusive: -28%,–
N#Cc1c(NC(=O)C2CCCO2)sc2c1CCCCC2 (centres undefined),inconclusive: 3.61%,–
Cc1ccc(/C=C/C(=O)O)cc1S(=O)(=O)NCc1ccco1,–,"inconclusive: 31.6 µM [falling, single point]"

SMILES,"activity change, negative = inhibition",Potency
O=c1cc(CSc2nc3ccccc3c(=O)[nH]2)c2ccc(O)cc2o1,inconclusive: -16.2%,–
COc1cc(NC(=O)CSc2nc3[nH]ncc3c(=O)n2-c2ccccc2C)cc(OC)c1OC,–,"inconclusive: 25.9 µM [falling, partial curve, poor fit]"
CC1(c2ccc(Cl)cc2Cl)NC(=O)N(CC(=O)NC2CCCCC2)C1=O (centres undefined),inconclusive: -1.06%,–
Fc1ccc(COc2ccc(Br)cc2CNCC2CCCO2)cc1 (centres undefined),inactive: -1.73%,–
COc1cc(Cl)c(NC2=CC(=O)C(=O)c3ccccc32)c(OC)c1,inactive: 1.43%,–
CCOc1ccc2nc(NC(=O)CS(=O)(=O)c3ccc(C)cc3)sc2c1,–,"inconclusive: 23.1 µM [falling, partial curve, poor fit]"
Cc1nc2ccccc2c(=O)n1CCN1CCOCC1,inconclusive: -4.41%,–
O=C(c1ccc2c3c(cccc13)CC2)C1CCCN(Cc2ccccn2)C1 (centres undefined),inactive: -0.434%,–
COc1ccc([C@H]2CC(=O)C=C(c3cc(C=O)ccc3OC)C2)cc1,inactive: -13.4%,–
COc1ccc(Cn2nnnc2C(c2ccc(C)cc2)N2CCN(C3CCCC3)CC2)cc1 (centres undefined),inactive: -1.89%,–
COCCNC(C)C(=O)C12CC3CC(CC(C3)C1)C2 (centres undefined),inconclusive: -11.8%,–
COC(=O)CSc1nc(C)c2ccc(OC)cc2n1,inconclusive: 9.23%,–
Cc1ccc(C(=O)NNC(=O)c2ccccc2O)cc1S(=O)(=O)N1CCCCC1,–,"inconclusive: 20.6 µM [falling, single point]"
O=C(CSc1nc2c([nH]c3ccccc32)c(=O)n1-c1ccc(F)cc1)NCc1ccco1,inconclusive: -4.65%,–
O=C(N/N=C1\C/C(=N\NC(=O)c2ccncc2)c2ccccc21)c1ccncc1,inconclusive: -11.4%,–
Cc1nc2ccccc2c(=O)n1CCCO,inconclusive: 1.25%,–
CC(CC(=O)NC1CCCC1)c1ccccc1 (centres undefined),inactive: -0.475%,–
Cc1ccsc1C(=O)OCC(=O)Nc1ccc(Cl)cn1,inconclusive: 7.32%,–
Cn1c2c(c(=O)n(C)c1=O)C(c1ccccc1F)C(C#N)=C(N)O2 (centres undefined),inconclusive: 3.15%,–
COc1ccccc1C(=O)NCC(=O)N1CCN(c2ncccn2)CC1,inactive: -1.33%,–
CCSc1nnc(NC(=O)C2C3C=CC(C3)C2C(=O)O)s1 (centres undefined),–,"inconclusive: 0.092 µM [falling, full curve, poor fit]"

SMILES,"activity change, negative = inhibition",Potency
Clc1ccc2[nH]c(-c3ccccc3)cc2c1,inconclusive: 0.725%,–
COc1ccc2ccc3c(c2c1)N=C[C@]1(O3)N(C)c2ccccc2C1(C)C,–,"inconclusive: 31.6 µM [falling, single point]"
CN(C)C(=O)c1ccc(NC(=O)CC2SC(N3CCCC3)=NC2=O)cc1 (centres undefined),inactive: 1.45%,–
CSc1ccccc1-c1nnc(-c2ccccc2)o1,–,"inconclusive: 3.66 µM [falling, partial curve, poor fit]"
CCC/C(=N/NC(=O)c1cccc(Cl)c1)c1ccccc1,–,"inconclusive: 29.1 µM [falling, single point]"
O=C(Nc1ccc2nsnc2c1)NC1CCCCC1,–,"inconclusive: 29.1 µM [falling, single point]"
COc1ccccc1N(/N=C1\Sc2ccccc2C1=O)C(C)=O,–,"inconclusive: 28.2 µM [falling, single point]"
CCC(=O)Nc1ccc(OCc2nc3ccccc3s2)cc1,inconclusive: -15.1%,–
CCc1ccc(C2N3CC4([N+](=O)[O-])CN2CC([N+](=O)[O-])(C3)C4(C)C)cc1 (centres undefined),inconclusive: 4.8%,–
Clc1ccc(CN2CC[C@H]3C=CCc4cccc(c43)C2)cc1,inactive: -3.79%,–
C[C@]12CCC(=O)C=C1CC[C@@H]1[C@@H]2C(=O)C[C@@]2(C)[C@H]1CC[C@]2(O)C(=O)CO,inconclusive: 1.58%,–
COC(=O)c1ccc(CN(Cc2ccc(OC)c(OC)c2)S(=O)(=O)c2ccc(F)c(C(=O)Nc3cc(C)ccc3C)c2)cc1,inconclusive: 1.18%,–
Cc1cc(OCc2cn3cccnc3n2)ccc1Cl,inactive: 1.42%,–
O=C(Nc1ccc2nn(-c3ccccc3)nc2c1)c1ccc2c(c1)OCCO2,inconclusive: 4.64%,–
COc1ccccc1NC(=O)C(=O)N/N=C/c1cccs1,inconclusive: 174%,–
COc1ccccc1CNN,–,"inconclusive: 22.4 µM [falling, partial curve]"
COc1ccc(NC(=O)C(=O)c2cn(CC(=O)N3CCCC3)c3ccccc23)c(OC)c1,inconclusive: -8.07%,–
CCOc1ccc(N2C(=O)CSC23CCCCC3)cc1,inconclusive: 10.5%,–
O=C(Nc1ccc(F)cc1)c1ccc2snnc2c1,inconclusive: -25.9%,–
Brc1ccc(-c2nn[nH]n2)cc1,inconclusive: 1.92%,–
CN(/N=C/c1ccc([N+](=O)[O-])o1)c1ccccc1,inconclusive: 14%,–

SMILES,"activity change, negative = inhibition",Potency
CCOC(=O)COc1cccc2c(=O)n(CC(=O)NCCc3ccccc3)ccc12,inactive: -0.86%,–
O=C(NN=C1C2CC3CC(C2)CC1C3)c1cccs1,–,"inconclusive: 0.517 µM [rising, partial curve, poor fit]"
CNC(=O)c1c(NC(=O)CS(=O)(=O)c2ccc(Cl)cc2)sc(C)c1C,inconclusive: 17%,–
CC(C)(C)c1nnc(SCC(=O)Nc2ccc(N3CCCCC3)cc2)n1N,inactive: -2.43%,–
CC(C)NC(=O)N(C)C[C@H]1Oc2ccc(NC(=O)Nc3ccc(C(F)(F)F)cc3)cc2C(=O)N([C@H](C)CO)C[C@@H]1C,inconclusive: -0.61%,–
CCc1ccccc1NC(=S)N(CCN(C)C)Cc1cccs1,inactive: -4.78%,–
CN(Cc1ccccc1)S(=O)(=O)c1ccc(F)c(C(=O)Nc2cc(Cl)cc(Cl)c2)c1,inactive: 22%,–
O=C(NNC(=S)NC(=O)c1ccc(Br)cc1)c1ccc([N+](=O)[O-])cc1,inconclusive: 4.18%,–
OC(COC1CCCCC1)CN1CCN(c2ccccc2)CC1 (centres undefined),inactive: 8.25%,–
Cc1ccc(S(=O)(=O)c2c(C)cc(C)nc2N2CCCCC2)cc1,inactive: -0.96%,–
COc1ccc(OCc2n(CC(=O)OC3CC(C)CCC3C(C)C)c3ccccc3[n+]2C)cc1 (centres undefined),inconclusive: 12.7%,–
O=c1cc(CSc2ccc(Cl)cc2)nc(-c2ccccn2)[nH]1,–,"inconclusive: 35.5 µM [falling, partial curve, poor fit]"
COCCCC/C(=N\OCCN)c1ccc(C(F)(F)F)cc1,inconclusive: 25.7% and inconclusive: -9.79%,–
CC1=NN(C(N)=S)C(=O)C1N=Nc1ccc(C)c(Br)c1 (centres undefined),inconclusive: 17.7%,–
CCn1c(CCNC(=O)c2ccco2)nc2ccccc21,inconclusive: -65.6%,–
Clc1ccccc1Nc1nc(-c2cccnc2)cs1,–,"inconclusive: 12.6 µM [falling, partial curve]"
COc1ccccc1NC(=S)NNC(=O)c1cc(C)n(C)n1,–,"inconclusive: 16.4 µM [falling, partial curve]"
Cc1ccc(NC2=CC(=O)CCC2)cc1C,inconclusive: -6.38%,–
CCCOc1ccccc1C1CC(=O)NC2=C1C(=O)CCC2 (centres undefined),inconclusive: -14.8%,–
COCCSc1ccccc1C(=O)Nc1ccccc1C#N,inconclusive: 1.25%,–
C=CCn1cnc2c(c1=O)c1nc3ccccc3nc1n2/N=C/c1cccc(OC)c1,inactive: 0.643%,–
